Results on five molecules are retold here after publication PMC6158257.

Protein sequences, listed by entry. Tags and fused reporters are not part of them.
UniProt P35580: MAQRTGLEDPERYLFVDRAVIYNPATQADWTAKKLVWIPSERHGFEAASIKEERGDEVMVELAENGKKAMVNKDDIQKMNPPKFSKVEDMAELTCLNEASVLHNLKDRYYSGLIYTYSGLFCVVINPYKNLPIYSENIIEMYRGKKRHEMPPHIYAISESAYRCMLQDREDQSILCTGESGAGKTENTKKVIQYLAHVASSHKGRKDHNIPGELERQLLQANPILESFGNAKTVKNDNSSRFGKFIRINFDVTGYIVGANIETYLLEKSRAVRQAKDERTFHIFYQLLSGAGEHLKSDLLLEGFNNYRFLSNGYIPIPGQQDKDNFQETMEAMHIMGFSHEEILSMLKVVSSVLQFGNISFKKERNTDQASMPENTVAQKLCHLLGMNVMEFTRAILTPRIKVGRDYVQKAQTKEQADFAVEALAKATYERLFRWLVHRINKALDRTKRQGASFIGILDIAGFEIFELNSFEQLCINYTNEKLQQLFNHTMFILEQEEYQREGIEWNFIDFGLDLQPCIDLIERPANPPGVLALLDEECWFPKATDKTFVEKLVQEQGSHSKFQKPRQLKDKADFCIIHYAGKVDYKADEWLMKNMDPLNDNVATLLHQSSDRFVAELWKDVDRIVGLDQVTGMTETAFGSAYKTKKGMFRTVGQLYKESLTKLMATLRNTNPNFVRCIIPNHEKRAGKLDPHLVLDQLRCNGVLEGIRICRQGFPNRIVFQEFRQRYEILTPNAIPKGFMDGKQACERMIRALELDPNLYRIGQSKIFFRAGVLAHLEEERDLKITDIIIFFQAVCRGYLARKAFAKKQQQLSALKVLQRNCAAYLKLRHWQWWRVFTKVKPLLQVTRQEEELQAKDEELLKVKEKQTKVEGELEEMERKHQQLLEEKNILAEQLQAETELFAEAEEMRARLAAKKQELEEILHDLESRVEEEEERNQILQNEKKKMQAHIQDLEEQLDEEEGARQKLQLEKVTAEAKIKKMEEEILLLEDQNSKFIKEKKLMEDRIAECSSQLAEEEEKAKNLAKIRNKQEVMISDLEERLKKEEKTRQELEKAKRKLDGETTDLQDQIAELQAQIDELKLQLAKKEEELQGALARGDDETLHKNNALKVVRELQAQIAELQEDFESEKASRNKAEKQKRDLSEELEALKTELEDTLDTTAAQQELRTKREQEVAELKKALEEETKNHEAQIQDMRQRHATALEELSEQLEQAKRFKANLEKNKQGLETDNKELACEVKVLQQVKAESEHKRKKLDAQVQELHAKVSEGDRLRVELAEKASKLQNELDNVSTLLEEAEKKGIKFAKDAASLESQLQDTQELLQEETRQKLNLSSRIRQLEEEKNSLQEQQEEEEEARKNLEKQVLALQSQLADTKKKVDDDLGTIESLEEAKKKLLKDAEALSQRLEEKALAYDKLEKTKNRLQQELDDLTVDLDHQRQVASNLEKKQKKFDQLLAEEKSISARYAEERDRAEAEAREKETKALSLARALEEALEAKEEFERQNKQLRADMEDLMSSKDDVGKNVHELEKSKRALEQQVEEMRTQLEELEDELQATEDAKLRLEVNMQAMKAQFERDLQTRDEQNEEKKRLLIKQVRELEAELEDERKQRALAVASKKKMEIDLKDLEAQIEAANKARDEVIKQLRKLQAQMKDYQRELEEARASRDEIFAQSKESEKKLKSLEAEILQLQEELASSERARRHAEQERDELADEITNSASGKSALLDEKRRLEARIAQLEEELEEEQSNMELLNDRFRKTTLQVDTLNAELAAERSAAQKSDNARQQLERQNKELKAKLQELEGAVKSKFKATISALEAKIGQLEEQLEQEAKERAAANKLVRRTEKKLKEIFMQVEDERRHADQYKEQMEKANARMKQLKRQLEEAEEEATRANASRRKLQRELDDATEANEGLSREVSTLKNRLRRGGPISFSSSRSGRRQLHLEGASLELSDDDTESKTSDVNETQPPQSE
UniProt P35579: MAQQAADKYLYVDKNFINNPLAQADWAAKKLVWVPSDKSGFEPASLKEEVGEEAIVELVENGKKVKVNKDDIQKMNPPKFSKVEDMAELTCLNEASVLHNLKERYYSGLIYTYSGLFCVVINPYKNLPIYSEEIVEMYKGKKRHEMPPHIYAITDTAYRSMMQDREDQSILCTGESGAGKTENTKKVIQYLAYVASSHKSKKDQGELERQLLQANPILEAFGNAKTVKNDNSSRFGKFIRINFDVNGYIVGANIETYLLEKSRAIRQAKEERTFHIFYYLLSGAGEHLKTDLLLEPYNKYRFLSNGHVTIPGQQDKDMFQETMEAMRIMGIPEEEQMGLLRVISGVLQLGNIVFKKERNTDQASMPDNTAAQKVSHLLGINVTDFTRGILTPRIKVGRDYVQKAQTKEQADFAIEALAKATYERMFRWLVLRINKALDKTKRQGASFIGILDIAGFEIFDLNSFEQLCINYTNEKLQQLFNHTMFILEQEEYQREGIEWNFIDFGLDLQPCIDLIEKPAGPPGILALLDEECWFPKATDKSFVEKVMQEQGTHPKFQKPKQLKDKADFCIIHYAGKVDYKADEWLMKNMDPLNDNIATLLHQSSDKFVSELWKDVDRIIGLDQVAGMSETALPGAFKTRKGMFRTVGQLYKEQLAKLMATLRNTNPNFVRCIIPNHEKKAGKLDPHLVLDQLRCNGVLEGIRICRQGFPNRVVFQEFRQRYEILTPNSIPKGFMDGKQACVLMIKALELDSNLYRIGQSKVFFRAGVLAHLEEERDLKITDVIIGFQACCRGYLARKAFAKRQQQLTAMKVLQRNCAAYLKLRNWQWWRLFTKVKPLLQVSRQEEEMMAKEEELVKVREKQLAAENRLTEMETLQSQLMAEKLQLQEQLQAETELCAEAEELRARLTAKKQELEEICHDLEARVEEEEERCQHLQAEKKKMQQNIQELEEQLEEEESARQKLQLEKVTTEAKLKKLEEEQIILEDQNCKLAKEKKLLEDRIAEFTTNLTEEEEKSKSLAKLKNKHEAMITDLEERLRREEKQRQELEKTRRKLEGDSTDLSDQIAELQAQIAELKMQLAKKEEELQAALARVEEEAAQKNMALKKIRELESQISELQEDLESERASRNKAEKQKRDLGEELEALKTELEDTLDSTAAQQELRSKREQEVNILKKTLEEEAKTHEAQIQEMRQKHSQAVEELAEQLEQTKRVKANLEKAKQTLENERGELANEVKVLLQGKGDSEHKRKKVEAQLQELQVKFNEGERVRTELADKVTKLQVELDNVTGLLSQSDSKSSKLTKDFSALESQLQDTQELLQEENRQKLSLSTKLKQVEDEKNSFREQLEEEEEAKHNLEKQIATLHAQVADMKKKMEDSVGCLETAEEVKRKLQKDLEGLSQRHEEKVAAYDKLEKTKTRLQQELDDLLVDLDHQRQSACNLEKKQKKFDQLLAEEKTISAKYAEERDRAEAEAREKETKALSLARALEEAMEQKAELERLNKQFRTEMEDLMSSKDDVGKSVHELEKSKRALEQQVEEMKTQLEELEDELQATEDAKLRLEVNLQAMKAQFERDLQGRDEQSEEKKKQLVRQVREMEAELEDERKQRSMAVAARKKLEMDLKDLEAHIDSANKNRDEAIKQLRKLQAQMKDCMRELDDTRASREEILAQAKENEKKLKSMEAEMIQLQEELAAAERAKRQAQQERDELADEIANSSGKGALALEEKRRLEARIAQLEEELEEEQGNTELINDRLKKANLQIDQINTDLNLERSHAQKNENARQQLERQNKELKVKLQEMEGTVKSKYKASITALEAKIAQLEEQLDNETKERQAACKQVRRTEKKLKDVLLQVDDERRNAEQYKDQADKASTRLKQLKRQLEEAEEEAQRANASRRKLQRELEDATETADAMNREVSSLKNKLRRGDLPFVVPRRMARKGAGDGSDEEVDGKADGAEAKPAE
UniProt P38159: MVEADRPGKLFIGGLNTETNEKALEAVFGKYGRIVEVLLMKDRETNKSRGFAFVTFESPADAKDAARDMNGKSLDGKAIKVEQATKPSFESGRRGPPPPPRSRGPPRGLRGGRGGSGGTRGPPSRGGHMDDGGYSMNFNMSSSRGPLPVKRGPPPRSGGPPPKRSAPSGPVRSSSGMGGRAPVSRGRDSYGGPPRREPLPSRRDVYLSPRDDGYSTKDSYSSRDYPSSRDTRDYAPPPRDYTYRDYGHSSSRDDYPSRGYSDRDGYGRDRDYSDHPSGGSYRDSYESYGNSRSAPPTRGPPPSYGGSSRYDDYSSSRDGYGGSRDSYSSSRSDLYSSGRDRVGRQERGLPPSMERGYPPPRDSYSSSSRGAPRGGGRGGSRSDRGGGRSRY

No constants are given. Whether binding was seen depends on the method and setting. Binding seen in cells or lysates may run through a third protein. Here binding means that the protein was enriched with, or labelled near, the bait; the list need not be complete.

This experiment concerns the target T1, USP45 (endogenous) (human (endogenous in KBM7, U2OS, HEK293)) (UniProt Q70EL2).
T1 sequence: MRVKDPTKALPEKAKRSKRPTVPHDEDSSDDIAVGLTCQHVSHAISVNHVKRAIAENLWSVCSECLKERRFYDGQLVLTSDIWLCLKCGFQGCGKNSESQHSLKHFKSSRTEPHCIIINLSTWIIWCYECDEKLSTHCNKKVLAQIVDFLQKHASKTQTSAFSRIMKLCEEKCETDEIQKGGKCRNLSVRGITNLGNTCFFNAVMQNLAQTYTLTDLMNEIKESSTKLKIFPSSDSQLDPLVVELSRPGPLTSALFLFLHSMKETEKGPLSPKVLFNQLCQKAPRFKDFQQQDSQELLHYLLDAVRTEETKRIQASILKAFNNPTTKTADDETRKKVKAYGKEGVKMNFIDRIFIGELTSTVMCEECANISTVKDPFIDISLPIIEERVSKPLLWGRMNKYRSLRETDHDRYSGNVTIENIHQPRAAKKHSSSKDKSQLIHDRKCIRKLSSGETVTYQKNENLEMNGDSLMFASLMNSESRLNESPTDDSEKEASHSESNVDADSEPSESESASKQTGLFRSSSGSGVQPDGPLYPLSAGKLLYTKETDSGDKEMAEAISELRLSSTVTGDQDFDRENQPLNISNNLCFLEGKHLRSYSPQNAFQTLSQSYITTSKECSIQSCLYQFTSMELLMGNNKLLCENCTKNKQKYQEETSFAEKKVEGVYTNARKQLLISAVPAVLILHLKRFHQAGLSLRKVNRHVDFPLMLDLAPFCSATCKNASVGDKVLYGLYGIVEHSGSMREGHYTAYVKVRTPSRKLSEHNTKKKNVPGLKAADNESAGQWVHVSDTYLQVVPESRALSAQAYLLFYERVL
Nature of the experiment: affinity purification with mass spectrometry; endogenous USP45 immunoprecipitated with anti-USP45 antibody coupled to protein G-Sepharose from 50 mg lysate of WT or USP45 KO KBM7 and U2OS cells; washes with 0.5 M NaCl; gel sections analysed by LC-MS.

As to “MYH10 (endogenous) (from UniProt P35580 1-1976)”, the binding result is reported as “binds”.

On to “MYH9 (endogenous) (from UniProt P35579 1-1960)”, for which the binding result is recorded as “binds”.

With “RBMX (endogenous) (from UniProt P38159 1-391)”, the binding entry was “binds”.

B1: XPF (endogenous) (protein, UniProt Q92889 1-916)
chain: MESGQPARRIAMAPLLEYERQLVLELLDTDGLVVCARGLGADRLLYHFLQLHCHPACLVLVLNTQPAEEEYFINQLKIEGVEHLPRRVTNEITSNSRYEVYTQGGVIFATSRILVVDFLTDRIPSDLITGILVYRAHRIIESCQEAFILRLFRQKNKRGFIKAFTDNAVAFDTGFCHVERVMRNLFVRKLYLWPRFHVAVNSFLEQHKPEVVEIHVSMTPTMLAIQTAILDILNACLKELKCHNPSLEVEDLSLENAIGKPFDKTIRHYLDPLWHQLGAKTKSLVQDLKILRTLLQYLSQYDCVTFLNLLESLRATEKAFGQNSGWLFLDSSTSMFINARARVYHLPDAKMSKKEKISEKMEIKEGEETKKELVLESNPKWEALTEVLKEIEAENKESEALGGPGQVLICASDDRTCSQLRDYITLGAEAFLLRLYRKTFEKDSKAEEVWMKFRKEDSSKRIRKSHKRPKDPQNKERASTKERTLKKKKRKLTLTQMVGKPEELEEEGDVEEGYRREISSSPESCPEEIKHEEFDVNLSSDAAFGILKEPLTIIHPLLGCSDPYALTRVLHEVEPRYVVLYDAELTFVRQLEIYRASRPGKPLRVYFLIYGGSTEEQRYLTALRKEKEAFEKLIREKASMVVPEEREGRDETNLDLVRGTASADVSTDTRKAGGQEQNGTQQSIVVDMREFRSELPSLIHRRGIDIEPVTLEVGDYILTPEMCVERKSISDLIGSLNNGRLYSQCISMSRYYKRPVLLIEFDPSKPFSLTSRGALFQEISSNDISSKLTLLTLHFPRLRILWCPSPHATAELFEELKQSKPQPDAATALAITADSETLPESEKYNPGPQDFLLKMPGVNAKNCRSLMHHVKNIAELAALSQDELTSILGNAANAKQLYDFIHTSFAEVVSKGKGKK
With B1, the binding result is listed as “binds”.

B2: ERCC1 (endogenous) (protein, UniProt P07992 1-297)
chain: MDPGKDKEGVPQPSGPPARKKFVIPLDEDEVPPGVAKPLFRSTQSLPTVDTSAQAAPQTYAEYAISQPLEGAGATCPTGSEPLAGETPNQALKPGAKSNSIIVSPRQRGNPVLKFVRNVPWEFGDVIPDYVLGQSTCALFLSLRYHNLHPDYIHGRLQSLGKNFALRVLLVQVDVKDPQQALKELAKMCILADCTLILAWSPEEAGRYLETYKAYEQKPADLLMEKLEQDFVSRVTECLTTVKSVNKTDSQTLLTTFGSLEQLIAASREDLALCPGLGPQKARRLFDVLHEPFLKVP
Take B2: the binding result is reported as “binds”.
